Literature values, collected in patent US20070191317A1, “VITAMIN D ANALOG - RAK, METHODS AND USES THEREOF” (WISCONSIN ALUMNI RESEARCH FOUNDATION, priority 2006, published 2007).
For at least one compound, name, drawing or mass did not settle the structure.

Details: cited from earlier work

C=C1[C@H](O)CC(=C/C=C2\CCC[C@]3(C)[C@@H](CC)CC[C@@H]23)C[C@H]1O [1α-hydroxy-2-methylene-19-nor-pregnacalciferol]
cell differentiation activity: relatively high cell differentiation activity
